Measurements: article doi:10.1101/2025.08.07.669221
No constants are given. Whether binding was seen depends on the method and setting. Binding calls can cover weak binding; strength is not graded here. Tags and fused reporters may be left off the sequences shown. For some assays here: In cells and extracts the contact can be indirect.

Columns and labels:
[1] = molecular target: WIND1 fused with the N terminus of YFP (nYFP), BiFC construct (Arabidopsis thaliana); experiment: split reporter
[2] = molecular target: WIND1 N-terminal region (N; 1st to 151st amino acids), yeast two-hybrid bait (Arabidopsis thaliana); experiment: two-hybrid

binding [1] | binding [2] | Binder
binds |  | ADA2a fused with the C terminus of YFP (cYFP), BiFC construct (protein, UniProt Q9SFD5 1-548) MGRSKLASRPAEEDLNPGKSKRKKISLGPENAAASISTGIEAGNERKPGLYCCNYCDKDLSGLVRFKCAVCMDFDLCVECFSVGVELNRHKNSHPYRVMDNLSFSLVTSDWNADEEILLLEAIATYGFGNWKEVADHVGSKTTTECIKHFNSAYMQSPCFPLPDLSHTIGKSKDELLAMSKDSAVKTEIPAFVRLSPKEELPVSAEIKHEASGKVNEIDPPLSALAGVKKKGNVPQAKDIIKLEAAKQQSDRSVGEKKLRLPGEKVPLVTELYGYNLKREEFEIEHDNDAEQLLADMEFKDSDTDAEREQKLQVLRIYSKRLDERKRRKEFVLERNLLYPDQYEMSLSAEERKIYKSCKVFARFQSKEEHKELIKKVIEEHQILRRIEDLQEARTAGCRTTSDANRFIEEKRKKEAEESMLLRLNHGAPGSIAGKTLKSPRGLPRNLHPFGSDSLPKVTPPRIYSGLDTWDVDGLLGADLLSETEKKMCNETRILPVHYLKMLDILTREIKKGQIKKKSDAYSFFKVEPSKVDRVYDMLVHKGIGDST
 | binds | HOMOLOG OF YEAST ADA2 2a (ADA2a), yeast two-hybrid fusion (protein, UniProt Q9SFD5 1-548) MGRSKLASRPAEEDLNPGKSKRKKISLGPENAAASISTGIEAGNERKPGLYCCNYCDKDLSGLVRFKCAVCMDFDLCVECFSVGVELNRHKNSHPYRVMDNLSFSLVTSDWNADEEILLLEAIATYGFGNWKEVADHVGSKTTTECIKHFNSAYMQSPCFPLPDLSHTIGKSKDELLAMSKDSAVKTEIPAFVRLSPKEELPVSAEIKHEASGKVNEIDPPLSALAGVKKKGNVPQAKDIIKLEAAKQQSDRSVGEKKLRLPGEKVPLVTELYGYNLKREEFEIEHDNDAEQLLADMEFKDSDTDAEREQKLQVLRIYSKRLDERKRRKEFVLERNLLYPDQYEMSLSAEERKIYKSCKVFARFQSKEEHKELIKKVIEEHQILRRIEDLQEARTAGCRTTSDANRFIEEKRKKEAEESMLLRLNHGAPGSIAGKTLKSPRGLPRNLHPFGSDSLPKVTPPRIYSGLDTWDVDGLLGADLLSETEKKMCNETRILPVHYLKMLDILTREIKKGQIKKKSDAYSFFKVEPSKVDRVYDMLVHKGIGDST
